Values from PubChem BioAssay AID1508588 (Peter MacCallum Cancer Centre, 2020)
This is one part, drawn at random, of about 18,000 reagents tested. 790 of all reagents (4.4%) count as active. 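Calls rest on a combination of fold-change classes in drug and vehicle arms, not all shown here.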 The numbers tell different reagents against one gene apart. A reagent listed more than once was tested more than once; the source does not tell the runs apart.

Aim: 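Genome-wide search for knock-downs that heighten vemurafenib action in melanoma cells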 (primary screen)
Cell system: human WM266.4 melanoma cells (BRAF V600 mutant)
Knock-down reagent: siRNA pool against human genes, 40 nM
Time to read-out: 96 h from transfection to read-out
Challenge: vemurafenib 300 nM (about IC25), added 48 h after transfection, for 48 h; comparison arm got DMSO vehicle only
Measured: 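Ratios to non-targeting siRNA for cell gain, counted as DAPI nuclei after minus before drug and averaged over two replicates, and for absorbance-read medium lactate per cell; both binned into fold-change classes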
Reading the numbers: cell gain with vemurafenib: higher = more cell gain than with non-targeting siRNA; lactate per cell with vemurafenib: higher = more lactate made per cell
Active means: 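Enhancement is called by pairing each knock-down's vehicle-arm and drug-arm fold-change classes for viability or glycolysis; which class combinations qualify is not given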
Meaning of the calls: active = enhances vemurafenib effect; inactive = no enhancement seen

target | pool no. | cell gain with vemurafenib | lactate per cell with vemurafenib | activity call
PPP3CA | 1 | 0.86 | 1.11 | inactive
RHNO1 | 1 | 0.12 | 0.14 | active
MT1A | 1 | 0.79 | 0.72 | inactive
FAM167B | 1 | 0.57 | 0.42 | inactive
DDB1 | 1 | 0.34 | 1.27 | inactive
PCDH18 | 1 | 1.23 | 0.6 | inactive
ATRAID | 1 | 0.5 | 0.71 | inactive
RUVBL2 | 1 | 0.14 | 1.72 | inactive
RORA | 1 | 0.81 | 0.5 | inactive
VCX3B | 1 | 0.04 | 0 | active
C3orf70 | 1 | 0.8 | 0.41 | inactive
ACER2 | 1 | -0.06 | 2.05 | inactive
OR51I2 | 1 | 0.63 | 1.43 | inactive
MIF4GD | 1 | 0.65 | 1.23 | inactive
MSC | 1 | 0.46 | 0.15 | inactive
GSTP1 | 1 | 0.66 | 0.39 | inactive
RNF169 | 1 | 0.64 | 1.35 | inactive
SAMD14 | 1 | 0.85 | 0.86 | inactive
ANXA5 | 1 | 0.41 | 1.86 | inactive
MYL3 | 1 | 0.47 | 1.79 | inactive
IRGC | 1 | 1.04 | 0.62 | inactive
MBTPS1 | 1 | 0.43 | 1.13 | inactive
MRPL53 | 1 | 0.49 | 0.88 | inactive
IRAG2 | 1 | 0.92 | 0.6 | inactive
MMP26 | 1 | 0.6 | 0.86 | inactive
ARSD | 1 | 0.4 | 0.7 | inactive
H2AC7 | 1 | 0.64 | 0.56 | inactive
CFAP251 | 1 | 0.68 | 1.04 | inactive
ZC3H7B | 1 | 0.39 | 0.94 | inactive
HEMGN | 1 | 0.52 | 1.39 | inactive
SOHLH1 | 1 | 1.11 | 0.88 | inactive
SELENOI | 1 | 0.66 | 0.43 | inactive
TP53RK | 1 | 0.53 | 0.48 | inactive
TP53RK | 1 | 0.52 | 0.73 | inactive
NAA30 | 1 | 0.17 | 0.79 | inactive
NTN3 | 1 | 0.07 | 2 | inactive
TMCO2 | 1 | 0.34 | 0.89 | inactive
MAMSTR | 1 | 0.44 | 0.82 | inactive
RAET1L | 1 | 0.75 | 1.64 | inactive
HSPB8 | 1 | 0.67 | 0.46 | active
OR11G2 | 1 | 0.5 | 1.85 | inactive
IGHMBP2 | 1 | 0.4 | 2.12 | inactive

A few values from above.
PPP3CA, lactate per cell with vemurafenib: 1.11
Under “lactate per cell with vemurafenib”, SELENOI has 0.43
For “lactate per cell with vemurafenib”, ANXA5 is entered as 1.86
For “activity call”, TMCO2 reads inactive
For “cell gain with vemurafenib”, MRPL53 is entered as 0.49
Value for NTN3 in “lactate per cell with vemurafenib”: 2

The results go on:
target | pool no. | cell gain with vemurafenib | lactate per cell with vemurafenib | activity call
NSD3 | 1 | 0.98 | 1.02 | inactive
APC2 | 1 | 0.01 | 0.68 | inactive
CLEC4C | 1 | 0.42 | 1.94 | inactive
OR10A6 | 1 | 0.77 | 1.06 | inactive
PLPP7 | 1 | 1.21 | 0.64 | inactive
TPST1 | 1 | 0.6 | 0.69 | inactive
MAP3K14 | 1 | 0.45 | 2.46 | inactive
CEP20 | 1 | 0.58 | 0.72 | inactive
THAP5 | 1 | 0.69 | 0.82 | inactive
AZU1 | 1 | 0.34 | 0.53 | active
CCDC85A | 1 | 0.96 | 0.92 | inactive
ACOT9 | 1 | 0.68 | 1.04 | inactive
PPP1R10 | 1 | 0.51 | 1.76 | inactive
CACNB3 | 1 | 0.47 | 0.94 | inactive
AK9 | 1 | 0.24 | 0.59 | inactive
AK9 | 2 | 0.6 | 1.29 | inactive
AK9 | 3 | 0.59 | 0.06 | active
GALNT8 | 1 | 0.78 | 0.77 | inactive
TBCD | 1 | 0.35 | 1.75 | inactive
SURF6 | 1 | 0.56 | 1.24 | inactive
SH3BP1 | 1 | 0.62 | 0.96 | inactive
LCE3C | 1 | 0.17 | 1.45 | inactive
UNC93B1 | 1 | 0.58 | 0.74 | inactive
PEBP1 | 1 | 0.83 | 0.88 | inactive
ARMC3 | 1 | 1.08 | 0.83 | inactive
PEX11G | 1 | -0.1 | -0.61 | inactive
EEF1E1 | 1 | 0.73 | 1.19 | inactive
HTR2B | 1 | 0.5 | 1.04 | inactive
CNDP2 | 1 | 0.8 | 0.54 | inactive
COL28A1 | 1 | 0.69 | 0.68 | inactive
CASQ2 | 1 | 0.5 | 0.88 | inactive
GPX2 | 1 | 0.54 | 0.58 | inactive
KCTD6 | 1 | 0.85 | 1.31 | inactive
FOLH1B | 1 | 0.13 | 0.53 | active
POU2AF2 | 1 | 0.64 | 1.83 | inactive
HPN | 1 | 0.49 | 2.05 | inactive
NAB2 | 1 | 0.72 | 0.66 | inactive
MTHFD1 | 1 | 0.43 | 1.08 | inactive
BTN3A3 | 1 | 0.41 | 0.98 | inactive
DDX49 | 1 | 0.67 | 0.97 | inactive
ASB16 | 1 | 0.49 | 1.19 | inactive
DDX17 | 1 | 0.8 | 1.06 | inactive
